The source of these data is the supplement of paper PMC12823440, “Inhibitors supercharge kinase turnover through native proteolytic circuits” (Nature, 2025).

Protein sequences, listed by entry. Tags and fused reporters are not part of them. Lines headed by an entry give the natural chain unless they say otherwise; changes in a name come on top.
UniProt P31749: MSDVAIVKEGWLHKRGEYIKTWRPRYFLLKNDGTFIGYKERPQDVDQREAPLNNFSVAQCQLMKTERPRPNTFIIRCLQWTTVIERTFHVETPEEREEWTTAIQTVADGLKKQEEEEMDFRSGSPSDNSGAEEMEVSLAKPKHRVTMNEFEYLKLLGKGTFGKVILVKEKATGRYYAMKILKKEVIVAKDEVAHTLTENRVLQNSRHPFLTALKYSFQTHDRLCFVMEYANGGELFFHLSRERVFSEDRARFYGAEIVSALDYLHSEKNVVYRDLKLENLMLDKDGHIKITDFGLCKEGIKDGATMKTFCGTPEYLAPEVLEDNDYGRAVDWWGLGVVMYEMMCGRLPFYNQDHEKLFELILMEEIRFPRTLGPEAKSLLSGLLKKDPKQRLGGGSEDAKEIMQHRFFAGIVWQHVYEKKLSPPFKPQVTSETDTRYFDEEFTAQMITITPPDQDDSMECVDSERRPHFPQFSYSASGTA
UniProt P10398: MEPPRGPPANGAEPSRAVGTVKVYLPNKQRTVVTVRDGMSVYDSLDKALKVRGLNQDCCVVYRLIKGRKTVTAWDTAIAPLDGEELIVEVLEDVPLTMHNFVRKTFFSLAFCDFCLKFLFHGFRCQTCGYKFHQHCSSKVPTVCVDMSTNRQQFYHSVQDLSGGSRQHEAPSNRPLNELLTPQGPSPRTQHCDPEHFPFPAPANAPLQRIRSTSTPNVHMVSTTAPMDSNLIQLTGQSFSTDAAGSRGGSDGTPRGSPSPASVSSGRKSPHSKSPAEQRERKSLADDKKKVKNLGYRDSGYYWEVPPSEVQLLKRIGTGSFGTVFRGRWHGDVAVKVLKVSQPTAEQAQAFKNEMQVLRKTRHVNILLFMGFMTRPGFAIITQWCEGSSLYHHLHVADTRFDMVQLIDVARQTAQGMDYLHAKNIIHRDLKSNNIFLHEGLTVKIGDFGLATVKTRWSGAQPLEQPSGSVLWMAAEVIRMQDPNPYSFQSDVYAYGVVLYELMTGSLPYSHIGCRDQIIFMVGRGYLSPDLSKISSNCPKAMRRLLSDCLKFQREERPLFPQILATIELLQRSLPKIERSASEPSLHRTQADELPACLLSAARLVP
UniProt O14965: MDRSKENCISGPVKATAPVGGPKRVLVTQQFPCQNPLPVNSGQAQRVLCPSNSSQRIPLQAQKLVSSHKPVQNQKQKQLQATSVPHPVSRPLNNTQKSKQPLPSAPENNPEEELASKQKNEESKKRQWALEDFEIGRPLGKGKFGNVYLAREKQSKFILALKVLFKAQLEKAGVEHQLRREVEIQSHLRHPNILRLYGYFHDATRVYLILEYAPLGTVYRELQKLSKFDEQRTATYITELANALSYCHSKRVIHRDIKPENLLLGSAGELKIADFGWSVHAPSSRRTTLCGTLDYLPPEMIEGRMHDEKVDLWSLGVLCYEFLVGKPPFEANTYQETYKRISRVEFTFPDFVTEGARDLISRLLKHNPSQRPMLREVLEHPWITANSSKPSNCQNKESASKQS
UniProt P51451: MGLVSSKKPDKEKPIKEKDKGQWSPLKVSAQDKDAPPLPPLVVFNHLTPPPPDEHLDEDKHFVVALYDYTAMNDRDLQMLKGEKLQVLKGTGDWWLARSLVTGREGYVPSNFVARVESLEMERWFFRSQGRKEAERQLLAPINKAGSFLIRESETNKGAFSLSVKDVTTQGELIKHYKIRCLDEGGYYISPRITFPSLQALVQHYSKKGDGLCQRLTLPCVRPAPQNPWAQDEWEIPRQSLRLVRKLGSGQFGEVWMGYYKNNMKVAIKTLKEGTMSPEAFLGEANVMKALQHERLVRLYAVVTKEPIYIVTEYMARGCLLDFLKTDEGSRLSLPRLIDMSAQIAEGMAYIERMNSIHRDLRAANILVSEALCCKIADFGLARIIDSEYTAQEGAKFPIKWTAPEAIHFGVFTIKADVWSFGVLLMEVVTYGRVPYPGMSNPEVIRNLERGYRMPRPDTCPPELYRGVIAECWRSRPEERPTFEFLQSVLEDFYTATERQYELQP
UniProt P51813: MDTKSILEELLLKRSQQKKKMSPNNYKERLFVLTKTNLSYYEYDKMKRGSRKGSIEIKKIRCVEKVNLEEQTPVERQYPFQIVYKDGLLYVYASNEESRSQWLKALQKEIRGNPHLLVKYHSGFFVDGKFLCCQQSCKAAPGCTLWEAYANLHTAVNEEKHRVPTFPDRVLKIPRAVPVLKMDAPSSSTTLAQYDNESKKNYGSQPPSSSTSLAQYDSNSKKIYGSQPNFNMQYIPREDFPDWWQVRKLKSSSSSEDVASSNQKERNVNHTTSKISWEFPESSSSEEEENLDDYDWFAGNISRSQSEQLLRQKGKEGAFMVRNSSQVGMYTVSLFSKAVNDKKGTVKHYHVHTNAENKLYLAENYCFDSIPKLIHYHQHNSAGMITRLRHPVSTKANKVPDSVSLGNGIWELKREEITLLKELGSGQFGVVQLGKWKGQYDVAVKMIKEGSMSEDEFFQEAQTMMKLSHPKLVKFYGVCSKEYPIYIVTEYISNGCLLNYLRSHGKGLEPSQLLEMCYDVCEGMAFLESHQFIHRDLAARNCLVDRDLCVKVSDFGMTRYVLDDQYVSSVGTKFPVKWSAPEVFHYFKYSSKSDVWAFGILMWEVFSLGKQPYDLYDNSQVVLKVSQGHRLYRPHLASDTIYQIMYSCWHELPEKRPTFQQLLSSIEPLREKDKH
UniProt P15056, whole entry, looked up: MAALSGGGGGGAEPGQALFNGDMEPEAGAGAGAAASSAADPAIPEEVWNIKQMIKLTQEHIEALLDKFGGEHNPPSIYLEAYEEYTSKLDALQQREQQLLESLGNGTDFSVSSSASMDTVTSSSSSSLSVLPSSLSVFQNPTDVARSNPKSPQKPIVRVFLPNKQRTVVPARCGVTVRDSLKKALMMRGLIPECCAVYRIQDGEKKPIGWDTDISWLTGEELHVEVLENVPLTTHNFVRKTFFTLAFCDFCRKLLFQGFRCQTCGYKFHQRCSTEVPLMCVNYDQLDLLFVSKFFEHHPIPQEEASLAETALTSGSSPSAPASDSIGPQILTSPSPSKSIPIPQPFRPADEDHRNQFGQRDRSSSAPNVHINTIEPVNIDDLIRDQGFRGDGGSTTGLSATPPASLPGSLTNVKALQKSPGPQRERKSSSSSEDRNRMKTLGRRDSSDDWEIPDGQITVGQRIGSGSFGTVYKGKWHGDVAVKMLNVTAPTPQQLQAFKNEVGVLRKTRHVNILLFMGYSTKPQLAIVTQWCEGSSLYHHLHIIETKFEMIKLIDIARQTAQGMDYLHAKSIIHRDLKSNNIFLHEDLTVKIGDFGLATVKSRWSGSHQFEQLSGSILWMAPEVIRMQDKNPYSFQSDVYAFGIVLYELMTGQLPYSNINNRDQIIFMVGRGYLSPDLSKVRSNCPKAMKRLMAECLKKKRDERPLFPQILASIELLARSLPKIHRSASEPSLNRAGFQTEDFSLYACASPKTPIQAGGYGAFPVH
UniProt Q06187: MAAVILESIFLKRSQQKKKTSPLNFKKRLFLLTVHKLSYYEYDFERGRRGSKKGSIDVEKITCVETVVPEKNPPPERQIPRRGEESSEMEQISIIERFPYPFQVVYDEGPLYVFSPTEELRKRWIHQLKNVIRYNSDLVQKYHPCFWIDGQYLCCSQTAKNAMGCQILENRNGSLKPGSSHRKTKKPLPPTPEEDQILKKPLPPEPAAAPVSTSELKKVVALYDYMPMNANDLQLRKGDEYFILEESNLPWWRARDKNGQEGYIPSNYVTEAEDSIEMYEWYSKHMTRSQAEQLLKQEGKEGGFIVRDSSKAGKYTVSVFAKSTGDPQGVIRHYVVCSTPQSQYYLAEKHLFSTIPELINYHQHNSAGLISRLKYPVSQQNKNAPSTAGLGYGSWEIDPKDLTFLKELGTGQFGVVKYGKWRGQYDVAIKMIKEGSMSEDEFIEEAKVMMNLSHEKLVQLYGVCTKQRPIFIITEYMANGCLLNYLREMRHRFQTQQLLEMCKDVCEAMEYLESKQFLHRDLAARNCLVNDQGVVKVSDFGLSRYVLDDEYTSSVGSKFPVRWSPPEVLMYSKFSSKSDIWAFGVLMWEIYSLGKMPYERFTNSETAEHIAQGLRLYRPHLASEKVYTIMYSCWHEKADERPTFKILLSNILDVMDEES
UniProt Q9UQM7, whole entry: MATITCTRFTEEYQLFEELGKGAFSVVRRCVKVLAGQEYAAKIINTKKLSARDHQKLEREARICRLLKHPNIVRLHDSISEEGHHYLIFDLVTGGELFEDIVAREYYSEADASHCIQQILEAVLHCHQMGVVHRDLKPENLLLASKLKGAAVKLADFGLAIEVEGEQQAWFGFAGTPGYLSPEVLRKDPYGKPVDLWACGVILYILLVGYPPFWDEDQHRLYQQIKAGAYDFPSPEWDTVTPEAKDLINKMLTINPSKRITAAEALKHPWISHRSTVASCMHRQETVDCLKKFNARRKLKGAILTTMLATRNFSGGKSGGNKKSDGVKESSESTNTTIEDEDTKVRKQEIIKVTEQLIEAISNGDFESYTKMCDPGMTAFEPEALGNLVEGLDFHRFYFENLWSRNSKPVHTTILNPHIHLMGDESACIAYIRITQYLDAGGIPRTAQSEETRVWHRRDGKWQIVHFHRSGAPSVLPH
UniProt Q13555: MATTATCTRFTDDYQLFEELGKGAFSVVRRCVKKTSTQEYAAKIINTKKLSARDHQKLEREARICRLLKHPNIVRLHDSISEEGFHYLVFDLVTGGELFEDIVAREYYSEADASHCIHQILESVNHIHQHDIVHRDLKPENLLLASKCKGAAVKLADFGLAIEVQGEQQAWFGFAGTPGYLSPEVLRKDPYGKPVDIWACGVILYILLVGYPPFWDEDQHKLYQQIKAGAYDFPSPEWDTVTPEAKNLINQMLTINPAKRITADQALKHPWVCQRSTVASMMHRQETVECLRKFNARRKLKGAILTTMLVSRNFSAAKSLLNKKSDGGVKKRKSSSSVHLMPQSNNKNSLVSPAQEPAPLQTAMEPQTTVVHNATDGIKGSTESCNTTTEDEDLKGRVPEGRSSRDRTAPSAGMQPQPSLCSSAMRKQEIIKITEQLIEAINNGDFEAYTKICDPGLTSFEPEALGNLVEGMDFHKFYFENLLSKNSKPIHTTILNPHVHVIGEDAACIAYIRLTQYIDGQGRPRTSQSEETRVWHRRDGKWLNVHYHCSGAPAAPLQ
UniProt Q15131: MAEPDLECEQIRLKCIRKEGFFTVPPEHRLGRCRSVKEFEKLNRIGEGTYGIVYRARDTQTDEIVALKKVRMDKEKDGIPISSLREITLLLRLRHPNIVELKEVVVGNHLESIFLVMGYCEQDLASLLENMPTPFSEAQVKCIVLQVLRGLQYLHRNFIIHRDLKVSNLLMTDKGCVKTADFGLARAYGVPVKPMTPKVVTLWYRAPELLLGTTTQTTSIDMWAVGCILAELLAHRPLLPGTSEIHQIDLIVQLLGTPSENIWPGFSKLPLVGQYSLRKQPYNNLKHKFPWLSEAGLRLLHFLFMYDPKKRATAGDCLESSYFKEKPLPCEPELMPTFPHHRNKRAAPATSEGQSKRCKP
UniProt Q00526: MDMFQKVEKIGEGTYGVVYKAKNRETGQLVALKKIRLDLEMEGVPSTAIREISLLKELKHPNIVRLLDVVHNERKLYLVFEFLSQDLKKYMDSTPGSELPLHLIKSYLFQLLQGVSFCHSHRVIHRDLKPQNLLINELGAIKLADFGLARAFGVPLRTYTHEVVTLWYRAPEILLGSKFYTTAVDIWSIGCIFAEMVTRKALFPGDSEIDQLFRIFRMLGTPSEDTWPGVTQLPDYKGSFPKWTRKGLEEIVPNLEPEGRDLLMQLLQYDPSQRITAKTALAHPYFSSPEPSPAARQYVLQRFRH
UniProt P11802: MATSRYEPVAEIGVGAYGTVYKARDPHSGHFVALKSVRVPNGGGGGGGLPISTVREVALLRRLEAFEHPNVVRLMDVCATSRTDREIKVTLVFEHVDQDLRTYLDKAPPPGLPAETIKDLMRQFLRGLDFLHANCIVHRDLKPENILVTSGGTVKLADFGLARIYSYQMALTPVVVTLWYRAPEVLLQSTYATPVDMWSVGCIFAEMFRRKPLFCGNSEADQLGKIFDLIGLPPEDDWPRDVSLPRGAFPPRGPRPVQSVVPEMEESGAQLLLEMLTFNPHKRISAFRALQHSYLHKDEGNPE
UniProt Q00535, whole entry, looked up: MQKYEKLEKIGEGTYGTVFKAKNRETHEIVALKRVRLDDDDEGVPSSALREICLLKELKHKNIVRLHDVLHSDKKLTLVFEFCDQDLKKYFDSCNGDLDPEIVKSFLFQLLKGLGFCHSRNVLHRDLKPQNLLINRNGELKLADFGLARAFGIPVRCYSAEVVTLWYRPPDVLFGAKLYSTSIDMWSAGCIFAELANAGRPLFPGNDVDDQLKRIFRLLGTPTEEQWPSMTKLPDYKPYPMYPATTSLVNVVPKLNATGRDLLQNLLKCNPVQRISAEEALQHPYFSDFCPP

Some of the results follow. The calls rarely recur for the same compound in another form.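 Kinases were expressed as nanoluciferase fusions in K562 cells and luminescence was read every 4 h between 2 and 18 h as percent of control, DMSO set to 100% and a positive control to 0%. A time point counts as decreased when the signal drops significantly (2 sigma). The hit call is the authors' own, does not follow from the count of time points alone, and its rule is not shown.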

Some targets named below: ABL1 (UniProt P00519); AKT1 (UniProt P31749); ALK (UniProt Q9UM73); ARAF (UniProt P10398); AURKA (UniProt O14965); AURKB (UniProt Q96GD4); AURKC (UniProt Q9UQB9); BLK (UniProt P51451); BMX (UniProt P51813); BRAF (UniProt P15056); BTK (UniProt Q06187); CAMK2A (UniProt Q9UQM7); CAMK2G (UniProt Q13555); CDK10 (UniProt Q15131); CDK2 (UniProt P24941); CDK3 (UniProt Q00526); CDK4 (UniProt P11802); CDK5 (UniProt Q00535); CDK6 (UniProt Q00534).

Common to all, as to test: kinase-Nluc reporter destabilization hit call (1 = scored as downregulated) (binary); higher = compound decreases kinase abundance
Common to all, as to settings: K562, 2-18 h

For the next assay, the system named is BRAF_V600E.

Consider `C=CC(=O)Nc1cc2c(Nc3ccc(F)c(Cl)c3)ncnc2cc1C#CC(C)(C)N1CCN(C)CC1` [AV-412 (free base)], for which the “kinase-Nluc reporter destabilization hit call” value with ABL1 (2.5 µM), in the assay with AKT1 (2.5 µM), in the assay with ALK (2.5 µM), in the assay with ARAF (2.5 µM), with AURKA (2.5 µM) and in the assay with AURKB (2.5 µM) was inactive: 0 throughout. For the same compound, the “kinase-Nluc reporter destabilization hit call” value with AURKC (2.5 µM) was inactive: 0; with BLK (2.5 µM), inactive: 0; with BMX (2.5 µM) it was inactive: 0; in the assay with BRAF (2.5 µM) it was inactive: 0; in the assay on BRAF_V600E (2.5 µM), active: 1; with BTK (2.5 µM), inactive: 0. Besides, the “kinase-Nluc reporter destabilization hit call” value with CAMK2A (2.5 µM), with CAMK2G (2.5 µM), in the assay with CDK10 (2.5 µM), with CDK2 (2.5 µM), with CDK3 (2.5 µM) and with CDK4 (2.5 µM) was inactive: 0 in each case. For the same compound, the “kinase-Nluc reporter destabilization hit call” value with CDK5 (2.5 µM) and with CDK6 (2.5 µM) was inactive: 0 each time.

In the case of `Cc1[nH]c(/C=C2\C(=O)Nc3ccc(F)cc32)c(C)c1C(=O)NCCN1CCCC1` [Toceranib], the “kinase-Nluc reporter destabilization hit call” value with ABL1 (2 µM), with AKT1 (2 µM), with ALK (2 µM), in the assay with ARAF (2 µM), with AURKA (2 µM) and with AURKB (2 µM) was inactive: 0 each time. Further, the “kinase-Nluc reporter destabilization hit call” value in the assay with AURKC (2 µM), with BLK (2 µM), with BMX (2 µM), with BRAF (2 µM), in the assay on BRAF_V600E (2 µM) and in the assay with BTK (2 µM) was inactive: 0 in each case. For the same compound, the “kinase-Nluc reporter destabilization hit call” value in the assay with CAMK2A (2 µM), in the assay with CAMK2G (2 µM), with CDK10 (2 µM), with CDK2 (2 µM), with CDK3 (2 µM) and with CDK4 (2 µM) was inactive: 0 in each case. The “kinase-Nluc reporter destabilization hit call” value in the assay with CDK5 (2 µM) and with CDK6 (2 µM) was inactive: 0 throughout.

For the compound `C[C@H](CCC(=O)NCCS(=O)(=O)O)[C@H]1CC[C@H]2[C@@H]3[C@@H](O)C[C@@H]4C[C@H](O)CC[C@]4(C)[C@H]3CC[C@]12C` [Tauroursodeoxycholate (sodium)], the “kinase-Nluc reporter destabilization hit call” value in the assay with ABL1 (10 µM), in the assay with AKT1 (10 µM), with ALK (10 µM), with ARAF (10 µM), with AURKA (10 µM) and with AURKB (10 µM) was inactive: 0 throughout. Also, the “kinase-Nluc reporter destabilization hit call” value with AURKC (10 µM), with BLK (10 µM), with BMX (10 µM), in the assay with BRAF (10 µM), with BRAF_V600E (10 µM) and with BTK (10 µM) was inactive: 0 in each case. In addition, the “kinase-Nluc reporter destabilization hit call” value with CAMK2A (10 µM), with CAMK2G (10 µM), in the assay with CDK10 (10 µM), with CDK2 (10 µM), with CDK3 (10 µM) and with CDK4 (10 µM) was inactive: 0 each time. In addition, the “kinase-Nluc reporter destabilization hit call” value in the assay with CDK5 (10 µM) and in the assay with CDK6 (10 µM) was inactive: 0 throughout.

For the compound `C[C@@H](N)[C@H]1CC[C@H](C(=O)Nc2ccncc2)CC1`, the “kinase-Nluc reporter destabilization hit call” value in the assay with ABL1 (10 µM), with AKT1 (10 µM), with ALK (10 µM), with ARAF (10 µM), with AURKA (10 µM) and with AURKB (10 µM) was inactive: 0 in each case. In addition, the “kinase-Nluc reporter destabilization hit call” value in the assay with AURKC (10 µM), with BLK (10 µM), with BMX (10 µM), with BRAF (10 µM), in the assay on BRAF_V600E (10 µM) and in the assay with BTK (10 µM) was inactive: 0 in each case. Moreover, the “kinase-Nluc reporter destabilization hit call” value with CAMK2A (10 µM), in the assay with CAMK2G (10 µM), in the assay with CDK10 (10 µM), in the assay with CDK2 (10 µM), with CDK3 (10 µM) and in the assay with CDK4 (10 µM) was inactive: 0 each time. Moreover, the “kinase-Nluc reporter destabilization hit call” value with CDK5 (10 µM) and with CDK6 (10 µM) was inactive: 0 each time.

With `CC(=O)Nc1cccc(-n2c(=O)n(C3CC3)c(=O)c3c(Nc4ccc(I)cc4F)n(C)c(=O)c(C)c32)c1` [Trametinib (DMSO solvate)], the “kinase-Nluc reporter destabilization hit call” value with ABL1 (10 µM), with AKT1 (10 µM), with ALK (10 µM), in the assay with ARAF (10 µM), with AURKA (10 µM) and in the assay with AURKB (10 µM) was inactive: 0 each time. The “kinase-Nluc reporter destabilization hit call” value in the assay with AURKC (10 µM), with BLK (10 µM), with BMX (10 µM), with BRAF (10 µM), in the assay with BRAF_V600E (10 µM) and in the assay with BTK (10 µM) was inactive: 0 each time. Moreover, the “kinase-Nluc reporter destabilization hit call” value with CAMK2A (10 µM), in the assay with CAMK2G (10 µM), in the assay with CDK10 (10 µM), in the assay with CDK2 (10 µM), with CDK3 (10 µM) and in the assay with CDK4 (10 µM) was inactive: 0 in each case. The “kinase-Nluc reporter destabilization hit call” value in the assay with CDK5 (10 µM) and with CDK6 (10 µM) was inactive: 0 in each case.
